Library screen at single concentrations

Measurements from “University of Dundee, Small-Polar-MMV Screening Library” (2021), ChEMBL document CHEMBL3988442.

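Whole-parasite assay of Trypanosoma brucei over 72 hours; the read-out is not stated. Compounds at 30 µM. Higher reads as stronger inhibition (inferred: compounds with an IC50 in retests scored well above the rest). Values scatter widely below zero; nearly all retest evidence comes from the higher of the two concentrations used. Of about 64,000 compounds tested this way, about 940 (1.5%) reached 50% or more in at least one test.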

Results are given as percent effect.
How 0% and 100% were set is not recorded. Most values in the screen are low, and negative values occur.
This is an unselected part of the compounds tested.

structure,effect
Cc1noc(C)c1C(C)NC(=O)N1CCC(NC(=O)c2ccsc2)CC1 (centres unmarked),-19.04
COc1ccccc1CC(=O)NS(C)(=O)=O,6.514
c1ccc(-c2nnc(CNC3CCCN(c4cccnn4)C3)o2)cc1 (centres unmarked),8.678
NC(=O)CCC1CCCN(c2ccc3ccc(F)cc3n2)C1 (centres unmarked),-0.6913
Cc1noc(-c2cnc(NC(C)C)nc2-c2ccco2)c1C,16.9
Cn1ccc(C(=O)N2CCC(Cc3cccc4ncccc34)C2)n1 (centres unmarked),-46.98
CCN1CCC12CCN(C(=O)c1cc(C)on1)C2.O=C(O)C(F)(F)F (centres unmarked),-2.636
N#CCCN(CCC#N)C(=O)c1cccc(N2CCNC2=O)c1,-52.05
Cn1ccnc1CNC(=O)CC1CCCCO1 (centres unmarked),-15.19
Cn1cc(C(=O)N2CCN(c3ccccc3)CC2)ccc1=O,-89.91
CN(C)CC(=O)N1CCC2(CC1)COCCN(Cc1ccncc1)C2,-15.47
CC(NC(=O)C1CN(c2ncnc3c2nnn3C)C1)c1ccccc1 (centres unmarked),-29.79
Cc1cc(C(=O)N(C)CC(F)(F)C(F)(F)F)ccc1-n1cncn1,10.17
Cl.O=C(C1CCC1)N1CCC2(CCNCC2)C1,-3.112
Cc1cccn2c(NC(C)(C)C)c(C3CCN(C(=O)C4CC4)CC3)nc12,3.436
CC(C)c1nn(C)c(N(C)C)c1CNC1CCCCNC1=O (centres unmarked),4.506
O=C(N[C@@H]1CN(Cc2ccc3cc[nH]c3c2)C[C@H]1O)c1cnccn1,-12.48
Cc1sc(NC(=O)CN(C)CCOc2cccc(F)c2)c(C)c1C,-34.87
[H][C@]12CCN(S(=O)(=O)c3ccc(C)cc3)[C@@]1([H])[C@@H](NC(=O)c1[nH]ncc1Br)C2,2.483
Cc1nc(NC2CCCC2)cc(C2CCN2C(=O)c2cnn(C)c2)n1 (centres unmarked),4.868
Cc1nc(C)n(C2CCCN(C(=O)c3ccc(N(C)C)nn3)C2)n1 (centres unmarked),-6.5
CC(C)(C)c1noc(-c2ccnc(-n3cnc(C(=O)O)c3)c2)n1,-14.95
COc1ccccc1C1(C(=O)N2CCCC(c3cc(C)[nH]n3)C2)CC1 (centres unmarked),-13.95
CC(Nc1ncnc2c1CCNC2)c1ccc(C(C)(C)C)cc1 (centres unmarked),90.36
CC1CN(C)c2ccccc2CN1C(=O)c1cc[nH]c(=O)c1 (centres unmarked),-25.96
CCc1ccccc1-c1cc(OC)nc(N)n1,10.34
CCn1cc(CN(C)S(=O)(=O)c2cnn(CC)c2C)c(C)n1,-3.928
CC(C)c1n[nH]c(C(=O)Nc2cc[nH]n2)c1Br,-42.25
CSCCC(O)C(=O)N(C)Cc1cnn(-c2ccc(F)cc2)c1 (centres unmarked),-11.67
O=C(NCCn1ccnc1)c1cncc(Br)c1,-43.05
CN(c1ccncn1)C1CC2(CCN(C(=O)CCc3cccs3)C2)C1 (centres unmarked),22.97
CCC(=O)Nc1cc(Cl)ccc1C(=O)N(C)Cc1noc(CC)n1,-2.694
Cc1cc(C(F)(F)F)nn1CC(C)C(=O)Nc1ccncc1 (centres unmarked),28.72
CCc1nnc(CN(CC)C(=O)CCc2scnc2C)o1,13.74
N#Cc1cnc2c(F)cc(F)cc2c1NC1CCN(CC(N)=O)CC1,-27.92
[H][C@@]12CCN(S(=O)(=O)c3cccs3)[C@]1([H])CCC(=O)N2CC,-17.07
COCCC(=O)N1CCC2(CCN(Cc3cccc(F)c3)CC2)C1.O=C(O)C(F)(F)F,-19.11
Cc1cccc(CS(=O)(=O)NCc2nn(C)c3c2CCCC3)c1,-10.91
CC1(C)CC(NC(=O)c2cnn(-c3ccccc3F)c2N)CC(C)(C)N1,-27.02
Cc1cncc(NC(=O)c2ccc(CN3CCCC(C(N)=O)C3)cc2)c1 (centres unmarked),-16.29
COc1ccc(CCN(C)C2CCCN(Cc3noc(C)n3)C2)cc1 (centres unmarked),-34.81
Cc1cc(CN(Cc2cccnc2)CC2CCCO2)on1 (centres unmarked),-28.17
[H][C@@]12CCN(c3ccc(C)nn3)C[C@]1(C(=O)N1CCCC1)CCO2,8.728
COc1ccc2[nH]cc(C3CCN(CCC(N)=O)CC3)c2c1,-6.419
CNC(=O)C(c1cccc(Cl)c1)C(C)C (centres unmarked),-7.822
CN(C)CC1CSCCCN1C(=O)c1ccc(C(C)(C)C)cc1 (centres unmarked),-6.419
C=C(C)COc1ccc(C(=O)N(C)C(C)c2ccon2)cc1 (centres unmarked),-4.396
CS(=O)(=O)N1CCCC12CCCN(C(=O)c1ccncc1)C2 (centres unmarked),-172.9
CC(=O)c1cccc(NC(=O)C2CN(S(=O)(=O)C3CC3)C2)c1,17.19
C=C(C)CN(CC)Cc1nc(C)no1,20.84
C[C@@H]1CN(CCOc2ccc(Cl)cc2)CC[C@@]1(O)C1CCOCC1,-42.79
O=C(O)C(F)(F)F.[H][C@@]12CCN(c3cccnc3)C[C@]1([H])CN(C(=O)c1ccc(C)nc1)C2,-17.4
CC(C)Cc1nc(CS(=O)(=O)C(C)C(=O)N2CCOCC2)no1 (centres unmarked),-29.19
Cc1occc1C(=O)N1CCCN(Cc2ncc(Cl)n2C)CC1,-29.02
Cn1c(C(=O)N2CCOCC2)nc2c1CCN(c1ncccn1)C2,-79.9
[H][C@]12CC[C@@]3(N=C(C)N(CC(C)C)C3=O)[C@@]1([H])CN(C(=O)NCC(C)C)C2,-26.27
CC1CN(C(=O)c2cnn(-c3ccccn3)c2C(C)C)CC(C)(C)O1 (centres unmarked),-2.303
CCN(CC)c1ccc(NS(=O)(=O)c2cccnc2)cn1,-40.61
CN(C)Cc1cc(=O)n2c(n1)CN(S(=O)(=O)C1CC1)CCC2.O=C(O)C(F)(F)F,-0.14
CC(C)(C(=O)NCCCc1nc2ccccc2[nH]1)n1cc(Cl)cn1,-40.63
Cc1cc(C)n(Cc2ccc(-c3noc(C(=O)NCCO)n3)cc2)n1,-14.56
CC(C(=O)N1CCN(c2cnccn2)CC1)n1cncn1 (centres unmarked),-8.804
[H][C@@]12CCN(Cc3c(C)noc3C)[C@]1([H])CC[C@H](c1nnc(C)o1)O2,-20.5
CC[C@]12CN3C[C@](CC)(CN(C1)C3c1[nH]c(=O)[nH]c(=O)c1C)C2=O (some centres unmarked),-52.32
CC(C)(C)NC(=O)NC(=O)CNC(C)(C)c1ccc2c(c1)OCCO2,7.673
COc1ccc(CNC(=O)N2CCN(CC(O)C3CC3)CC2)cc1.Cl (centres unmarked),3.479
c1ncc2c(n1)CN(Cc1nc(-c3ccsc3)no1)CC2,20.73
[H][C@@]12C[C@@H](Oc3cccnc3)CN1CCN(C(=O)c1cccn1C)C2,8.475
Cn1nccc1C(=O)N1CCCN(CCCc2ccccc2)CC1,-37.02
NC(=O)C1CCN(CCc2ccc(NCc3ccoc3)cc2)CC1,-11.22
CCC(C(=O)NC1(COC)CCCC1)n1cccn1 (centres unmarked),-106.2
CCC(C)NC(=O)c1ccc(CNC(=O)CC(C)(C)C)cc1 (centres unmarked),-21.4

Some entries from above, unchanged:

structure	effect
CN(C)Cc1cc(=O)n2c(n1)CN(S(=O)(=O)C1CC1)CCC2.O=C(O)C(F)(F)F	-0.14
Cc1cccc(CS(=O)(=O)NCc2nn(C)c3c2CCCC3)c1	-10.91
Cn1nccc1C(=O)N1CCCN(CCCc2ccccc2)CC1	-37.02
Cc1cncc(NC(=O)c2ccc(CN3CCCC(C(N)=O)C3)cc2)c1 (centres unmarked)	-16.29
CS(=O)(=O)N1CCCC12CCCN(C(=O)c1ccncc1)C2 (centres unmarked)	-172.9
CCC(C)NC(=O)c1ccc(CNC(=O)CC(C)(C)C)cc1 (centres unmarked)	-21.4
CC(=O)c1cccc(NC(=O)C2CN(S(=O)(=O)C3CC3)C2)c1	17.19
CN(c1ccncn1)C1CC2(CCN(C(=O)CCc3cccs3)C2)C1 (centres unmarked)	22.97
COc1ccccc1C1(C(=O)N2CCCC(c3cc(C)[nH]n3)C2)CC1 (centres unmarked)	-13.95